Part of at least one peptide drawing is inferred or uncertain, most often the ends.
Molecular target: bovine renal cortical membrane (BRCM) adenylate cyclase
Assay: BRCM adenylate cyclase assay
Assay type: biochemical
Conditions: adenylate cyclase stimulated by 3 nM [Nle8,18,Tyr34]bPTH(1-34)NH2

In the case of CC[C@H](C)[C@H](NC(=O)[C@H](CC(C)C)NC(=O)[C@H](Cc1c[nH]cn1)NC(=O)[C@H](Cc1c[nH]cn1)NC(=O)[C@H](CC(C)C)NC(=O)[C@H](Cc1ccccc1)NC(=O)[C@H](Cc1ccccc1)NC(=O)[C@H](CCCNC(=N)N)NC(=O)[C@H](CCCNC(=N)N)NC(=O)[C@H](CCCNC(=N)N)NC(=O)[C@H](CC(C)C)NC(=O)[C@@H]1CC(=O)NCCCC[C@H](NC(=O)[C@@H](Cc2c[nH]c3ccccc23)NC(=O)[C@H](CC(C)C)NC(=O)[C@H](CC(=O)O)NC(=O)[C@H](Cc2c[nH]cn2)NC(=O)[C@H](CC(C)C)NC(=O)[C@@H](N)CC(C)C)C(=O)N[C@@H](CO)C(=O)N[C@@H]([C@@H](C)CC)C(=O)N[C@@H](CCC(N)=O)C(=O)N1)C(=O)N[C@@H](C)C(=O)N[C@@H](CCC(=O)O)C(=O)N[C@H](C(=O)N[C@@H](Cc1c[nH]cn1)C(=O)N[C@H](C(=O)N[C@@H](C)C(N)=O)[C@@H](C)O)[C@@H](C)CC [drawing 13], the Ki is reported as 47 ± 3 nM.
